From ChEMBL document CHEMBL3988442, “University of Dundee, Small-Polar-MMV Screening Library” (2021).

Mtb growth Cornell: 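Whole-cell assay for inhibitors of Mycobacterium tuberculosis growth, labelled Cornell in the record; the read-out is not stated. The concentration is filed as 10 mM, unlikely as a test dose, so the dose is not known. The record gives no direction; compounds strong in two other growth screens of this library score well above the rest, so higher reads as stronger inhibition. Of about 53,000 compounds tested this way, about 900 (1.7%) reached 50% or more in at least one test.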
Mtb heat-shock: 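Assay on Mycobacterium tuberculosis, filed only as a heat shock assay from Cornell; the read-out is not stated. The concentration is filed as 10 mM, unlikely as a test dose, so the dose is not known. Direction is inferred from retests: higher values go with stronger inhibition. Of about 69,000 compounds tested this way, about 930 (1.4%) reached 50% or more in at least one test.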

The filed quantity is “Percent Effect” (%). The record does not define 0% and 100%; most values in the screen are far below 50% and negative numbers occur (in some assays of this library far below -100). This is an unselected part of the compounds tested. A dash means the value is not listed here; it may have been measured.

structure | Mtb growth Cornell | Mtb heat-shock
CCC(=O)NC(c1ccc(C)cc1)c1cccc(S(C)(=O)=O)c1 (configuration not stated) | 8.329% | 11.57%
OC(COc1ccccc1)CN1CCc2c(ncn2C2CC2)C1 (configuration not stated) | - | 12.7%
Oc1cc(C2CCCCN2Cc2ccsc2)nc(-c2ccncc2)n1 (configuration not stated) | 9.174% | -9.132%
Cc1nc(C2CCCN(C(=O)c3cc(C(C)(C)C)on3)C2)no1 (configuration not stated) | - | 11.88%
O=C(CSC(F)(F)F)N1CCC2(CCCN(C3CCOCC3)C2=O)C1 (configuration not stated) | -24.7% | -5.612%
COc1cc(CNC(=O)N2CCCC2c2cc(C)no2)ccn1 (configuration not stated) | 9.942% | -7.309%
O=C(Nc1ccccc1)c1cc2n(n1)CCCN(C(=O)c1ccc[nH]1)C2 | 6.795% | -18.9%
Cc1noc(C)c1CN1CCC(c2nnc(Cn3cccn3)n2C)CC1 | 16.69% | 5.196%
O=S(=O)(c1cccs1)N1CCC(c2nc(-c3cccs3)no2)CC1 | -23.24% | 12.12%
Cc1cnn(CCNCc2cccnc2)c1 | - | 4.325%
COc1ncnc(N)c1CNCCc1ccccc1 | 18.91% | -3.349%
Cc1ccc(CNC(=O)Nc2nnc(C3CC3)s2)n1C | - | 11.08%
CN1CC(NC(=O)Nc2cnn(-c3ccccc3Cl)c2)CCC1=O (configuration not stated) | - | -13.78%
Cc1nc2c(c(N3CCN(c4ncccc4C(N)=O)CC3)n1)CCNC2 | - | 6.854%
O=C(O)C(F)(F)F.O=C(O)C(F)(F)F.[H][C@@]12CCCO[C@]1([H])[C@H](N(C)C)CN2Cc1ccc(C)o1 | 10.85% | 0.355%
Cc1nc(CN(C)S(=O)(=O)c2ccccc2Br)no1 | - | 2.105%
CC(C)c1noc(CCC(=O)N2CCN(C)CC2c2ccccc2)n1 (configuration not stated) | 19.26% | -13.24%
O=C(O)C(F)(F)F.O=C(O)C(F)(F)F.c1ccc(NCc2cnc3n2CCN(CC2CCOC2)CC3)nc1 (configuration not stated) | 15.73% | -30.26%
CN(C)CCN(Cc1ccsc1)C(=O)C1=NNC(=O)CC1 | 3.746% | -14.3%
CCc1ocnc1C(=O)N1CCCC1c1noc(C)n1 (configuration not stated) | - | 10.88%
c1ccc(CCNc2ncnc3c2CCN(Cc2c[nH]cn2)CC3)cc1 | - | -14.07%
O=C1COc2cc(C(=O)NS(=O)(=O)c3cc(Cl)ccc3Cl)ccc2N1 | -26.05% | -4.161%
[H][C@@]12COC[C@]1(C(=O)N1CCCO1)CN(Cc1cnn(C)c1)C2 | -26.39% | 0.6173%
CC(=O)N1CC2(CCCC2)c2ccccc21 | -1.48% | -11.8%
CN(C)c1ccc(C(=O)N2CCCN(Cc3cnn(C)c3)CC2)nn1 | - | -9.495%
CN1CCC(NC(=O)NCCNc2ccccn2)CC1 | 8.918% | -5.196%
Cc1ccsc1CNC(=O)c1ccc(N2CCOC2=O)cc1 | - | -14.55%
COc1cncc(N2CCN(Cc3cccn3C)CC2)n1 | 27.05% | 0.2884%
Cc1nc(CCNC(=O)Nc2cc(C(F)(F)F)c[nH]c2=O)cs1 | 15.14% | 8.412%
O=C(NC1CC1)c1nc2c(s1)CCCN2c1ccccc1 | 13.24% | 9.203%
CC(C)c1ccn(C2(C(=O)O)CCN(c3ccncc3F)CC2)n1 | - | -14.57%
COCCCN1CC2(CCCN(c3ncnc4[nH]cnc34)C2)CCC1=O (configuration not stated) | -11.07% | -1.978%
CC(C)N1CCCC(C(=O)N2CCN(c3cccc(C(=O)O)c3)CC2)C1 (configuration not stated) | - | -24.95%
CC(C)(C)c1nnc(CN2CCN(C(=O)CC3CCCCC3)CC2)o1 | 15.73% | -33.26%
CCSCc1ccc(C(=O)N2CCCN(CC(N)=O)CC2)cc1 | 6.069% | 6.856%
CSc1ccccc1C(C(=O)O)N(C)CC1CCOCC1 (configuration not stated) | - | -18.22%
OCC1CCN(c2ccc(NCc3ccsc3)nc2)CC1 | 16.85% | 11.8%
CC(C)c1nc(CN2CCN(C(=O)CC3CCCCC3)CC2)no1 | - | -3.094%
C[C@@H]1CN(CCOCc2ccccc2)CC[C@@]1(O)C1CCC1 | -23.68% | -26.19%
CCc1ccc(NC(=O)C(C)N2CCN(Cc3ncc[nH]3)CC2)cc1 (configuration not stated) | -0.1574% | -21.15%
Cc1n[nH]c(-c2ccc(NC(=O)C(C)N3CCN(C)CC3)cc2)n1 (configuration not stated) | 11.3% | -19.88%
CCC(Nc1cccc(Oc2ccccn2)c1)C(N)=O (configuration not stated) | 1.532% | -26.13%
CCC(C)NC(=O)c1ccccc1-n1cnnn1 (configuration not stated) | 22.98% | -2.742%
Cc1cnn(CC(C)NCC(=O)NCCc2cccs2)c1 (configuration not stated) | -21.36% | -19.41%
CN(C)CC1COCCN1C(=O)C1(c2cccs2)CCCC1.O=CO (configuration not stated) | 0.762% | -6.726%
Cc1cc(CNc2cc(-c3ccoc3C)nn2CCO)c(C)o1 | 21.16% | 14.06%
Cc1ocnc1C(=O)N1CCC2(CC1)c1nc[nH]c1CCN2CC(C)C | 1.019% | -13.37%
NCCn1cc(C(=O)NCc2ccccc2-n2cccn2)nn1 | -26.76% | 5.688%
c1ccc(Cc2nnc(CN3CCn4c(nnc4C4CC4)C3)o2)cc1 | -19.9% | -4.528%
Cc1nc(C)c(CCNc2ccc(S(N)(=O)=O)cc2C#N)s1 | -12% | -13.97%
CC(C)(C)OC(=O)N[C@@H]1C[C@@H](O)CN(C(=O)c2ccc(F)cc2)C[C@H]1O | 1.188% | 17.29%
CCCC1(CO)CCCN(c2ncccc2F)C1 (configuration not stated) | - | -7.35%
CCn1ccc(NC(=O)CN2C(=O)C(C)(C)c3ccccc32)n1 | 20.65% | -16.77%
CN1CCN(Cc2noc(-c3cc(-c4ccc(F)cc4)n[nH]3)n2)CC1 | -29.41% | -17.21%
Cc1ccc(C(=O)N2CCCC(C(=O)N3CCCCC3)C2)c(O)c1 (configuration not stated) | -20.61% | 7.198%
CN1CCC(c2nnc3ccc(C(=O)NC4CCCC4)cn23)C1.O=C(O)C(F)(F)F (configuration not stated) | - | -23.72%
Br.O=C(CN(C1=NCCCC1)c1ccccc1)c1ccc2c(c1)OCCO2 | 22.49% | -15.61%
CCCC(=O)NC(C)c1nnc2n1CCC2 (configuration not stated) | - | 10.54%
O=c1n(CCNCc2ccc(-c3ccccc3)cc2)nc2ccccn12 | 39.54% | -19.75%
CC(=O)N1CCCN(C(=O)c2oc(Br)cc2C)CC1 | - | 2.935%
O=C(C1CC1)N1CCC2(CCCN2Cc2ccc(F)cc2)CC1.O=C(O)C(F)(F)F | 3.548% | -6.766%
COc1ccc(Cl)cc1NCC(=O)N(Cc1ccncc1)C1CC1 | - | -28.55%
CN(C)CCNC(=O)CNC(=O)N1CCc2c([nH]c3ccc(Cl)cc23)C1 | - | -1.154%
CC(=O)NCc1ccc(C(=O)NC2CCc3nc(C)cn3C2)o1 (configuration not stated) | - | 10.09%
CCc1nccn1CC(=O)Nc1cccc(N2CCCC2)c1 | -48.88% | 5.688%
CCOC(=O)c1sc2ccsc2c1CNC(=O)C(C)(C)C#N | 12.69% | 19.83%
CCC[C@H]1CN(CCS(C)(=O)=O)C[C@@H]1NC(=O)c1cc(CC)on1 | 6.914% | 15.39%
CCCc1cc(C(=O)N2CCC3(CC2)CN(CCN(C)C)C(=O)O3)no1 | 12.97% | 2.004%

For reference, 8 entries once more:

{"structure": "Cc1cc(CNc2cc(-c3ccoc3C)nn2CCO)c(C)o1", "Mtb growth Cornell": 21.16, "Mtb heat-shock": 14.06}
{"structure": "CCOC(=O)c1sc2ccsc2c1CNC(=O)C(C)(C)C#N", "Mtb growth Cornell": 12.69, "Mtb heat-shock": 19.83}
{"structure": "Cc1nc(CN(C)S(=O)(=O)c2ccccc2Br)no1", "Mtb heat-shock": 2.105}
{"structure": "CC(C)c1nc(CN2CCN(C(=O)CC3CCCCC3)CC2)no1", "Mtb heat-shock": -3.094}
{"structure": "CC(C)c1noc(CCC(=O)N2CCN(C)CC2c2ccccc2)n1", "stereo": "configuration not stated", "Mtb growth Cornell": 19.26, "Mtb heat-shock": -13.24}
{"structure": "CC(C)(C)c1nnc(CN2CCN(C(=O)CC3CCCCC3)CC2)o1", "Mtb growth Cornell": 15.73, "Mtb heat-shock": -33.26}
{"structure": "CN(C)c1ccc(C(=O)N2CCCN(Cc3cnn(C)c3)CC2)nn1", "Mtb heat-shock": -9.495}
{"structure": "CCCC1(CO)CCCN(c2ncccc2F)C1", "stereo": "configuration not stated", "Mtb heat-shock": -7.35}